The campaign covered roughly 340,000 compounds. About 170 (0.05%) were called active. Inconclusive results, whose numbers are uncertain, are shown with a selection of clear calls. The call rests on the fitted dose curve; in most records, active means well fitted inhibition curve with a large enough effect in the signal ratio, with a control signal flat (not every such curve was filed as active); inconclusive means small, poorly fitted or top-dose-only effect, or effect the other way, or a change in a side signal; inactive means flat fitted curve, though single readings scatter; the % refers to the signal ratio. Potencies of inconclusive entries are doubtful fits and often do not repeat.
experiment: qHTS Assay to Find Inhibitors of Chronic Active B-Cell Receptor Signaling; details: ABC-DLBCL IkBa-CBG/CBR reporter, luminescence ratio (green luciferase fused to IkBa over red control in TMD8 lymphoma cells), 4 h; activity change, negative = inhibition: at 46.1 µM (top of the series);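 on activity change, negative = inhibition: plate controls were basal doxycycline-induced cells for no effect and cells given 10 µM MG132 for full effect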
Method in brief: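 Compounds up to 46 uM were incubated four hours with TMD8 cells whose green CBG68 luciferase is fused to IkappaBalpha; red CBR luminescence normalised the signal, and concentration-effect curves were fitted to fusion, red and ratio data.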
Potency means the concentration at half of the fitted maximal effect.

Row | SMILES | activity change, negative = inhibition | Potency
1 | Cc1ccc(OCC(=O)N2N=C(C(F)(F)F)CC2(O)C(C)(C)C)cc1C (configuration not stated) | inconclusive: -6.02% | 
2 | COc1ccc(/C=N/Nc2ncnc3scc(-c4ccccc4)c23)cc1OC | inconclusive: 4.24% | 
3 | O=C(NNc1ccc(Cl)cc1)c1sccc1Cl |  | inconclusive: 14.1 µM [falling, partial curve]
4 | O=C1c2ccccc2C(=O)N1c1n[nH]c(CCc2ccccc2)n1 | inconclusive: 0.474% | 
5 | CCC(C)Sc1ccc([C@H]2N[C@@](C)(C(=O)OC)[C@H]3C(=O)N(C)C(=O)[C@@H]23)cc1OC (some centres not stated) | inactive | 
6 | Nc1c(N2CCCC2)c2ccccc2oc1=O |  | inconclusive: 11.2 µM [falling, partial curve]
7 | COc1ccc(NC(C)=O)cc1NC(=O)CSc1nnc(-c2ccccn2)n1C |  | inconclusive: 6.51 µM [falling, partial curve, poor fit]
8 | COc1ccc(/C=N/NC(=O)c2ccc(NC(=O)c3cccc([N+](=O)[O-])c3)cc2)c(OC)c1 | inactive | 
9 | CC(C)Cc1nc2oc3c(=O)[nH]cnc3c2c2c1CCCC2 | inactive | 
10 | Cc1ccc(CNS(=O)(=O)c2ccc(CN3C(=O)c4cccnc4C3=O)s2)o1 | inactive | 
11 | COc1ccc(C)cc1NS(=O)(=O)c1ccc2c(c1)n(C)c(=O)n2C | inactive | 
12 | CC1(C)CC(C)(c2ccc(O)cc2O)N(c2cccc(Cl)c2)C(=S)N1 (configuration not stated) | inconclusive: 20.6% | 
13 | CCCCOCC1CC(CC#CCN2CCCCC2)C(=O)O1 (configuration not stated) | inconclusive: 11.2% | 
14 | O=C(/C=C/NNC(=O)c1ccccc1O)c1ccccc1 |  | inconclusive: 35.5 µM [rising, single point]
15 | CCn1nc(C)c([N+](=O)[O-])c1C(=O)NNC(=O)c1ccccc1Cl | inconclusive: -11.7% | 
16 | COc1cc(C2c3c(-c4ccccc4)n[nH]c3C(=O)N2c2ccccc2)ccc1O (configuration not stated) |  | inconclusive: 31.6 µM [falling, single point]
17 | C/C(=N\NC(=O)c1ccccc1)c1ccc(N2CCOCC2)cc1 |  | inconclusive: 3.66 µM [falling, single point]
18 | COc1cc(/C=C(/C(=O)O)c2ccc(-c3ccccc3)cc2)cc(OC)c1OC |  | inconclusive: 22.4 µM [falling, single point]
19 | COc1ccc2c(c1)CC/C(=C\C=C\c1ccccc1OC)C2=O |  | inconclusive: 23.1 µM [falling, partial curve]
20 | O=C(c1ccc2nc[nH]c2c1)N1CCN(c2cccc(C(F)(F)F)c2)CC1 | inactive | 
21 | COc1ccc(OC)c(/C=N/c2c(-c3ccc(O)c(OC)c3)nc3ccccn23)c1 |  | inconclusive: 2.51 µM [falling, partial curve, poor fit]
22 | C=CCn1c(-c2sc(-c3ccccc3)nc2C)n[nH]c1=S |  | inconclusive: 35.5 µM [falling, single point]
23 | Cc1cc(S(=O)(=O)N2CCOCC2)ccc1OCC(=O)NCC1CCCO1 (configuration not stated) | inactive | 
24 | CCCn1c(=O)c2[nH]c(-c3ccc(OCC(=O)Nc4ccc(C#N)cc4)cc3)nc2n(CCC)c1=O | inconclusive: 12.9% | 

Row | SMILES | activity change, negative = inhibition | Potency
25 | O=C(Nc1ccc(C(=O)O)cc1)Nc1cccc([N+](=O)[O-])c1 |  | inconclusive: 20.6 µM [falling, single point]
26 | CC1CCCN(S(=O)(=O)c2cc(C(=O)NCc3ccco3)ccc2Cl)C1 (configuration not stated) | inconclusive: -3.91% | 
27 | O=C(O)CCC(=O)N1N=C(c2cccs2)CC1c1cn(-c2ccccc2)nc1-c1ccccc1 (configuration not stated) |  | inconclusive: 20.6 µM [rising, single point]
28 | CCOC(=O)Cn1nc(/C=C/c2ccc(C(C)C)cc2)ccc1=O | inconclusive: -0.459% | 
29 | COC(=O)c1ccccc1Sc1c(/C=N/OCc2ccc(Cl)cc2)c(C(F)(F)F)nn1C | inconclusive: -5.1% | 
30 | OCCC1CN(Cc2cnn(-c3ccccc3Cl)c2)CCN1Cc1ccsc1 (configuration not stated) | inconclusive: -55.6% | 
31 | O=C(Oc1cccc(NC(=O)c2ccco2)c1)c1cccc(S(=O)(=O)N2CCCC2)c1 |  | inconclusive: 25.9 µM [falling, single point]
32 | COc1ccc(CC2=C(O)c3ccccc3C(=O)C2=O)cc1 | inconclusive: 8.1% | 
33 | O=C(CCCc1nc(-c2ccccc2Cl)no1)NC1CCCC1 | inconclusive: -22.9% | 
34 | CCOc1ccc(N2C(=O)CC(Sc3nc(CC(C)C)ccc3C#N)C2=O)cc1 (configuration not stated) | inconclusive: 13.8% | 
35 | CCOc1ccc(OCCSc2nnnn2-c2ccccc2)cc1 |  | inconclusive: 0.082 µM [falling, full curve, poor fit]
36 | COc1cc(C=O)ccc1OCc1c(C)noc1C | inconclusive: 6.62% | 
37 | O=C(c1ccccc1SCc1ccccc1)N1CCCCCC1 | inconclusive: 7.27% | 
38 | Cc1ccc(-n2c(C)cc(/C=N/NC(=O)c3ccc(CN4CCOCC4)cc3)c2C)cc1 | inconclusive: -11.9% | 
39 | Cc1ccc(COc2ccc(/C=N/NC(=O)c3nnn(-c4nonc4N)c3COc3ccc(F)cc3)cc2)cc1 | inactive | 
40 | C#CCOCCOCCOCCNc1nc(N2CCN(C(=O)CCCCCCCCCCNC(=O)[C@H]([C@@H](C)CC)n3cc(CCCCN=C(N)N)nn3)CC2)nc(N2CCN(C(=O)CCCCCCCCCCNC(=O)[C@H](CCCCN)n3cc(C[C@@H](C)CC)nn3)CC2)n1 | inconclusive: 7.43% | 
41 | O=C(NC1=NCCS1)Nc1ccccc1 |  | inconclusive: 22.4 µM [falling, single point]
42 | CCOc1ccc(N2C(=O)CC(N)C2=O)cc1 (configuration not stated) |  | inconclusive: 29.1 µM [rising, single point]
43 | CCOC(=O)C1(CCc2ccccc2)CCN(Cc2ccc(O)cc2)CC1 | inconclusive: -20.1% | 
44 | CCCCCn1c(C(C)NC(=O)CCC)nc2ccccc21 (configuration not stated) | inactive | 
45 | Cc1ccc2cc3cc(C(=O)N(CC(=O)NC4CCCC4)c4cccc(C)c4C)sc3nc2c1 | inactive | 
46 | CCOc1ccc(-c2nc(CSc3nnc(N)s3)cs2)cc1OC |  | inconclusive: 13 µM [falling, partial curve]
47 | O=C(Nc1cccc(-c2cn3c(n2)SCC3)c1)c1ccc2ccccc2n1 |  | inconclusive: 15.8 µM [falling, partial curve]

Quoted at random: four compounds from above.
Row | SMILES | activity change, negative = inhibition | Potency
46 | CCOc1ccc(-c2nc(CSc3nnc(N)s3)cs2)cc1OC |  | inconclusive: 13 µM [falling, partial curve]
38 | Cc1ccc(-n2c(C)cc(/C=N/NC(=O)c3ccc(CN4CCOCC4)cc3)c2C)cc1 | inconclusive: -11.9% | 
36 | COc1cc(C=O)ccc1OCc1c(C)noc1C | inconclusive: 6.62% | 
29 | COC(=O)c1ccccc1Sc1c(/C=N/OCc2ccc(Cl)cc2)c(C(F)(F)F)nn1C | inconclusive: -5.1% | 

Reference: PubChem BioAssay AID493014 (National Center for Advancing Translational Sciences (NCATS), 2011)
